Test results as given in paper PMC11343034, “CDCA7 is an evolutionarily conserved hemimethylated DNA sensor in eukaryotes”.
No constants are given. Whether binding was seen depends on the method and setting. Binding seen in cells or lysates may run through a third protein.

What was measured:
[1] = target: T1, HELLS, endogenous in Xenopus egg extracts (X. laevis (endogenous in Xenopus egg extracts)) (UniProt Q4V835); assay: co-IP; anti-HELLS antibody (12.5 ug) on Protein A Dynabeads; Xenopus egg extract (25 ul) with 2 ul 35S-labeled UHRF1 and 2 ul 35S-labeled CDCA7 TnT lysates; on ice 1 hour; autoradiography (fig. S2D)
T1 sequence: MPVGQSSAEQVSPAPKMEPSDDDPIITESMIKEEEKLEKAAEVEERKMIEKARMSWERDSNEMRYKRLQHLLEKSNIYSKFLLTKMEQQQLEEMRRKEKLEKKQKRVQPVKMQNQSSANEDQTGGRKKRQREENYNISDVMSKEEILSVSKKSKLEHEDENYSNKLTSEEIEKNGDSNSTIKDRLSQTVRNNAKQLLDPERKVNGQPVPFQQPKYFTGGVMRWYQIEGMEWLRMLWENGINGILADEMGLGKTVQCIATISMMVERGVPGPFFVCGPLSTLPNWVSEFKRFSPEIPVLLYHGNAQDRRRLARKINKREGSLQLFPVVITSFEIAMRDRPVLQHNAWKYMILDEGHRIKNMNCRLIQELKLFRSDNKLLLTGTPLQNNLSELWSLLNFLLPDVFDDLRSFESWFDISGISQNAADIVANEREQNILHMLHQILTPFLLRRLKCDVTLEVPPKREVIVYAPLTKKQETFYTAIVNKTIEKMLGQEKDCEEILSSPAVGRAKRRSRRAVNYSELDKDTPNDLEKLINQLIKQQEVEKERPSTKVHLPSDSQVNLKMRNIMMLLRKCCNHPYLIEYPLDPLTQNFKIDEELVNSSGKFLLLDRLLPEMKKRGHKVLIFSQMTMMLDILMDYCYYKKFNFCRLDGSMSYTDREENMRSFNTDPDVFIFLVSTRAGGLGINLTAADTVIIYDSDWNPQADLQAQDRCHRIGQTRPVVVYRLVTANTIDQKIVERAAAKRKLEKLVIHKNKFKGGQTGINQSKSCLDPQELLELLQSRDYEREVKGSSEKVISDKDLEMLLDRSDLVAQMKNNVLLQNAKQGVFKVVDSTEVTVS

[2] = target: T2, UHRF1, endogenous in Xenopus egg extracts (X. laevis (endogenous in Xenopus egg extracts)) (UniProt B6CHA3); assay: co-IP; anti-UHRF1 serum (85 ul) on Protein A Dynabeads; Xenopus egg extract (25 ul) with 3.5 ul 35S-labeled HELLS and 0.5 ul 35S-labeled UHRF1 TnT lysates; on ice 1 hour; autoradiography (fig. S2E)
T2 sequence: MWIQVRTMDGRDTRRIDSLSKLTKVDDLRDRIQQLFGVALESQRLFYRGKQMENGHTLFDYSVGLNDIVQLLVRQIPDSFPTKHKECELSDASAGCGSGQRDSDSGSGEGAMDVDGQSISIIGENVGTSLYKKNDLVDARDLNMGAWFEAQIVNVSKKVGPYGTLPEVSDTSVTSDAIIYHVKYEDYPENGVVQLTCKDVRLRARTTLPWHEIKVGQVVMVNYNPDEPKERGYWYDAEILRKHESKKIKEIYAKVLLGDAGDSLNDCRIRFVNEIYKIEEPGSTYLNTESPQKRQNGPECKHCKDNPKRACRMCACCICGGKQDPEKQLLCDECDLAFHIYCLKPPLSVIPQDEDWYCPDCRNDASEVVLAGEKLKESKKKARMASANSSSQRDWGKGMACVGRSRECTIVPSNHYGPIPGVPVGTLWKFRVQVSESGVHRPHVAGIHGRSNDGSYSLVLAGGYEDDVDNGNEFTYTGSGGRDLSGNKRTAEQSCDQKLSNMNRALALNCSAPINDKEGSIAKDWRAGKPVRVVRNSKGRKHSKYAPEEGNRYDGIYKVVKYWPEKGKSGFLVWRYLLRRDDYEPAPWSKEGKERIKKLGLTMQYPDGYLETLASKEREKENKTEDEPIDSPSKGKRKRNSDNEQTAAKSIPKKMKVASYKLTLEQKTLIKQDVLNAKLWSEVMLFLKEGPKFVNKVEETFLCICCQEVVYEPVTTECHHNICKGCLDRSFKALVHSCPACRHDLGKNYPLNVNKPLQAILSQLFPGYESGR

B1: UHRF1, 35S-labeled (protein, UniProt B6CHA3 1-772)
chain: T2 sequence
modifications: 35S-labelled methionine
- binding [1]: no binding

B2: X. laevis HELLS, wild type, 35S-labeled (protein, UniProt Q4V835 1-838)
chain: T1 sequence
modifications: 35S-labelled methionine
- binding [2]: no binding
